In publication PMC10465699, “Interaction patterns of methoprene-tolerant and germ cell-expressed Drosophila JH receptors suggest significant differences in their functioning” (Frontiers in Molecular Biosciences, 2023) one finds binding data, which are given here for one molecule.

No constants are given. Whether binding was seen depends on the method and setting. In cells and extracts the contact can be indirect. A result given as binding can be weak or reduced; the word gives no strength. Sequences can lack the tags named with a protein.

The target in the experiment is YFP-Gce-FLAG (full-length Gce, short isoform of 689 aa) (D. melanogaster). Nature of the experiment: co-IP; COS-7 cells co-transfected with a YFP-/FLAG-tagged protein and CFP-Ftz-F1 LBD; lysate on ANTI-FLAG M2 Affinity Gel, elution with FLAG peptide, Western blot with anti-GFP; no JH. In general terms: Immunoblotting shows a protein as a band on a membrane.

B1: Fushi tarazu factor-1 ligand-binding domain (Ftz-F1 LBD, 786-1027 aa) (domain or fragment, D. melanogaster, UniProt P33244 786-1027, looked up)
chain: ALIEPLRVSPMIREFVQSIDDREWQTQLFALLQKQTYNQVEVDLFELMCKVLDQNLFSQVDWARNTVFFKDLKVDDQMKLLQHSWSDMLVLDHLHHRIHNGLPDETQLNNGQVFNLMSLGLLGVPQLGDYFNELQNKLQDLKFDMGDYVCMKFLILLNPSVRGIVNRKTVSEGHDNVQAALLDYTLTCYPSVNDKFRGLVNILPEIHAMAVRGEDHLYTKHCAGSAPTQTLLMEMLHAKRKG
notes: 15N- or 13C,15N-labelled where it was the observed protein in NMR, unlabelled otherwise; also called LBD Ftz-F1; source: E. coli BL21(DE3), purified (Ni-NTA, thrombin digestion, SEC); not shown: His6, N-terminal, cleaved
Regarding B1, the binding entry is listed as “binds”.
